What follows are molecules tested on MRPs (assay: Caco-2 pump out assay, CMFDA excretion). Details: Kout CMFDA 96-well / 384-well.
Type: cell-based

Point of comparison: `CN(C)C(=O)CCSC(SCCC(=O)O)c1cccc(C=Cc2ccc3ccc(Cl)cc3n2)c1` (centres unmarked) [MK571, 3-[[3-[2-(7-chloroquinolin-2-yl)vinyl]phenyl]-(2-dimethylcarbamoylethylsulfanyl)methylsulfanyl] propionic acid], “Ratio Kout 96/384 wells, MRPs” value 1.59. Against it:
- CC(=O)Nc1ccc(O)cc1 [acetanomiphen] — lower, 0.76
- COc1cccc2c1C(=O)c1c(O)c3c(c(O)c1C2=O)C[C@@](O)(C(=O)CO)C[C@@H]3O[C@H]1C[C@H](N)[C@H](O)[C@H](C)O1 [doxorubicin] — lower, 0.82
- COc1cc2c(cc1OC)CN(CCc1ccc(NC(=O)c3cccc4c(=O)c5cccc(OC)c5[nH]c34)cc1)CC2 [elacridar] — lower, 1.27
- CN(C)C(=O)C(CCN1CCC(O)(c2ccc(Cl)cc2)CC1)(c1ccccc1)c1ccccc1 [loperamide] — lower, 1.19
- CCC1(c2ccccc2)C(=O)NC(=O)NC1=O [phenobarbital] — lower, 1.03
- CO[C@H]1/C=C/O[C@@]2(C)Oc3c(C)c(O)c4c(O)c(c(/C=N/N5CCN(C)CC5)c(O)c4c3C2=O)NC(=O)/C(C)=C\C=C\[C@H](C)[C@H](O)[C@@H](C)[C@@H](O)[C@@H](C)[C@H](OC(C)=O)[C@@H]1C [rifampicin] — lower, 0.99
- CC[C@]1(O)C[C@@H]2CN(CCc3c([nH]c4ccccc34)[C@@](C(=O)OC)(c3cc4c(cc3OC)N(C)[C@H]3[C@@](O)(C(=O)OC)[C@H](OC(C)=O)[C@]5(CC)C=CCN6CC[C@]43[C@@H]65)C2)C1 [vinblastine] — lower, 0.95
